Source: article PMC9681739
These are yes or no findings as the source states them, for the method shown. In cells and extracts the contact can be indirect. Binding can be weak; no strength is given.

Biological target: T1, syndecan-4 (rat) (UniProt P34901)
T1 sequence: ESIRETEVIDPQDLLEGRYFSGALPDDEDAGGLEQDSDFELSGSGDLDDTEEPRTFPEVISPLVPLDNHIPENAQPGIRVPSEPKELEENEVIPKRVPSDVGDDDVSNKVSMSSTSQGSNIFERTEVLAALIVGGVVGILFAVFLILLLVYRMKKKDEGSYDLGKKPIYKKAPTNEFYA
Experiment: co-IP; chondrocytes transduced with Lv-Sdc4 (MOI = 100), cold RIPA lysis buffer; 1 ug anti-SDC4 (PA1-32485) or normal rabbit IgG overnight at 4 °C, protein A/G PLUS-Agarose 3 h at 4 °C; western blot with anti-ADAMTS-5 (ab41037)

- binding: binds
Substance: ADAMTS-5 (rat (endogenous in rat chondrocytes)) (enzyme)
